# Results reported in PubChem BioAssay AID588497 (NMMLSC, 2011).
# In all, about 360,000 compounds went through this assay and about 780 (0.22%) were called active. The inconclusive results got no clear call from the source; some entries with a clear call stand among them for comparison. Cut-off read from the data, not from the text of the source: active = inhibition above about 35% (passing the limit was not always enough); inconclusive = no clear call, values can overlap the other calls.
# System: Botulinum neurotoxin type F light chain protease (Clostridium botulinum)
# Experiment: BoNT/F light chain protease inhibitors, primary screen, biochemical, flow cytometry, MLPCN library (AID 588497); note: plate controls were buffer without enzyme for full effect and enzyme alone for no effect
# Conditions: Multiplex microsphere protease cleavage assay, at 10 µM, stronger effect = higher value
row,Compound,inhibition
1,CCOC(=O)C1CCN(C(=O)CCc2ccc(S(=O)(=O)NCC(C)C)cc2)CC1,inconclusive: -10.9%
2,CC(C)c1cc(NCCOCCO)n2c(nc3ccccc32)c1C#N,inconclusive: -9.3%
3,CN(Cc1cnc2nc(N)nc(N)c2n1)c1ccc(C(=O)NC(CCC(=O)O)C(=O)O)cc1 (configuration not stated),inactive: 1.2%
4,CC(C)(C)C1=NN=C2c3ccccc3C(=O)C21 (configuration not stated),inconclusive: -17.1%
5,COc1ccc(CNC(=O)C(c2cccs2)N(Cc2ccco2)C(=O)Cc2cccs2)cc1 (configuration not stated),inconclusive: 8.1%
6,O=c1[nH]c(N/N=C/c2ccccc2Br)nnc1-c1ccccc1,inactive: -5.4%
7,O=C(COc1cccc2c1CCNC2=O)Nc1cccc(C(F)(F)F)c1,inconclusive: 2.8%
8,COc1cccc(S(=O)(=O)NCc2ccc(C(=O)N3CCN(C)CC3)cc2)c1,inactive: -2.7%
9,O=C(NNc1ccc([N+](=O)[O-])cc1)Nc1ccccc1,inconclusive: -11.3%
10,O=c1oc2cc(Br)ccc2n1Cc1ccccc1,inconclusive: -26.7%
11,Cc1ccc(Sc2ncccc2NC(=O)c2ccccc2Cl)cc1,inconclusive: -57.4%
12,Cc1ccccc1N=C1NC(=O)C(CO)(CO)S1,inconclusive: -19.5%
13,COc1cccc(CN2CCN(c3ncccn3)CC2)c1OC,inconclusive: -9.2%
14,Cc1cccnc1NC(=O)Nc1cccs1,inactive: -3%
15,CC(C)(C)CC(C)(C)NC(=O)/C=C/C(=O)O,inconclusive: 4.9%
16,Cc1cc(C)n2nc(SCCC(=O)NCCc3ccccc3)nc2n1,inactive: -0.3%
17,CC(O)CSc1nc2c(c(=O)[nH]c(=O)n2C)n1Cc1ccccc1Cl (configuration not stated),inconclusive: 5.1%
18,COc1cc(OC)c(CNC2CCCCCC2)cc1Br,inactive: 3.4%
19,Cc1cccc(N2C(=O)CC(Cn3nc(C)cc3C)C2=O)c1 (configuration not stated),inconclusive: 36.4%
20,CCS(=O)(=O)N1CCC(C(=O)Oc2ccccc2)CC1,active: 38.9%
21,COc1ccc(C2=Nn3c(nnc3-c3cccnc3)SC2)cc1,inactive: -4%
22,C=CCn1c(C)c(C=C2C(=O)NC(=O)NC2=O)c2ccccc21,inconclusive: -10.5%
23,CC(=O)c1ccc(NC(=O)c2cc(CC(C)C)nc3ccccc23)cc1,inconclusive: 39%

# Individual results from the entries so far.
# Under inhibition, `CC(C)c1cc(NCCOCCO)n2c(nc3ccccc32)c1C#N` has inconclusive: -9.3%
# Under inhibition, `C=CCn1c(C)c(C=C2C(=O)NC(=O)NC2=O)c2ccccc21` has inconclusive: -10.5%

# More compounds follow.

row,Compound,inhibition
1,CCCC(=O)N1CCCC1(C)C(=O)Nc1cc(OC)c(OC)c(OC)c1 (configuration not stated),inactive: 7.7%
2,CCOc1cc(C2Nc3ccccc3NC3=C2C(=O)CC(C)(C)C3)ccc1OC(C)=O (configuration not stated),inconclusive: 8.5%
3,c1ccc(OCCNc2nc(NCC3CC3)nc3ccsc23)cc1,inactive: -7.4%
4,CC(C)NS(=O)(=O)c1ccc(CCC(=O)N2CCC(C(N)=O)CC2)cc1,inactive: -1.7%
5,CCN1CCN(c2nc3ccccn3c(=O)c2/C=C(\C#N)S(=O)(=O)c2ccccc2)CC1,inconclusive: -89.9%
6,COc1cc(NC(=O)C(C)C)ccc1NC(=O)c1cc2ccccc2o1,inconclusive: -9.8%
7,S=c1[nH]nc(-c2ccco2)n1/N=C/c1cccc(Cl)c1,inconclusive: 33.1%
8,Cc1nnc2n(-c3ccccc3)c(=O)c3ccccc3n12,inconclusive: 8.8%
9,CCOc1cccc(C(=O)Nc2ccc(NC(=O)c3cc4ccccc4o3)c(OC)c2)c1,inconclusive: -22.5%
10,COc1ccc(C2/C(=C(/O)c3ccccc3)C(=O)C(=O)N2C)c(OC)c1 (configuration not stated),inconclusive: 5.3%
11,Cn1c(C(=O)O)ccc1S(=O)(=O)N(Cc1ccccc1)Cc1ccccc1,inconclusive: 132%
12,COc1ccccc1OCCn1nnc2ccccc21,inactive: -8.3%
13,COc1cc(N2CCCC2)c(OC)cc1/C=C(/C#N)c1cccc(F)c1,active: 48.1%
14,C/C(=N\NC(=O)c1ccc2c(c1)OCCO2)c1ccccc1,inconclusive: 58.2%
15,CC(C)Cc1cc(C(=O)Nc2ccccc2)c2ccccc2n1,active: 42.6%
16,O=C(NCCS(=O)(=O)N1CCC2(CC1)OCCO2)c1ccccc1,inconclusive: 11.7%
17,CCCCNC(=O)[C@]1(C)CCC[C@@]2(C)C3CC[C@@]4(C)C[C@]3(CCC21)CC4=O (some centres not stated),inactive: 1%
18,O=C(NNC(=O)c1ccc[nH]1)Nc1cccc(C(F)(F)F)c1,inconclusive: -50.7%
19,COc1ccc(C(CC(=O)O)NC(=O)OC(C)(C)C)cc1 (configuration not stated),inconclusive: -13%
20,COc1ccc(C(=O)NCCNC(=O)c2ccc(OC)cc2)cc1,inconclusive: 21.8%
21,COc1cc(/C=C2\SC(=S)N(Nc3ncc(C(F)(F)F)cc3Cl)C2=O)cc(OC)c1OC,active: 43.1%
22,Cc1ccc(C)c(NC(=O)CN(C)C(=O)C2CCN(S(=O)(=O)c3ccc4c(c3)OCCO4)CC2)c1,inconclusive: -8.6%
23,CC(C)C(=O)NNC(=O)c1csc(CS(=O)(=O)c2ccc(Cl)cc2)n1,inconclusive: -38.3%

row,Compound,inhibition
1,COc1ccc(-c2nnc(N3CCC(C)CC3)c3ccccc23)cc1,inconclusive: 6.9%
2,CC1CC(=O)N(c2ccc(C(C)C)cc2)C(=O)C1,inconclusive: -0.6%
3,O=c1oc2ccccc2n1Cc1cccc(C(F)(F)F)c1,inconclusive: -29.8%
4,CCN(CC)C(=O)CSc1nc(N)c(-c2ccccc2)c(=O)[nH]1,inactive: 3.3%
5,COc1cc(C(=O)Nc2ccc3c(c2)ncn3C)cc(OC)c1OC,inconclusive: -11.8%
6,Cc1ccc(-c2c[n+]3c(n2-c2ccccc2)SCC3)cc1,inconclusive: 29%
7,COc1ccc(C(=O)Nc2ccccc2C(=O)NC(Cc2c[nH]c3ccccc23)C(=O)O)cc1 (configuration not stated),inactive: 2.1%
8,O=C(Nc1ccccc1C(=O)NCCc1ccccc1)c1ccco1,inactive: 1.2%
9,COc1ccc2nc(C)cc(NCc3ccc(F)cc3)c2c1,active: 134%
10,Cc1ccccc1N1CCN(CCC(=O)Nc2ccc(F)cc2)CC1,inconclusive: 43.6%
11,Cc1onc(-c2c(Cl)cccc2Cl)c1COC(=O)c1ccc(Cl)cc1[N+](=O)[O-],inconclusive: -21.3%
12,CC12CCC(C(=O)N3CCCCC3)([C@H](Br)C1=O)C2(C)C (some centres not stated),inconclusive: 6.2%
13,O=c1c2ccccc2c(=O)n(-c2ccccc2)n1CCCCBr,inconclusive: -22.8%
14,CSc1nsc(SC)c1CO,inconclusive: -18.5%
15,O=C(Cc1c(F)cccc1Cl)Nc1ccccc1C(=O)N1CCCCC1,inconclusive: -14.3%
16,Oc1ccc(Br)cc1Cn1nnc2ccccc21,inconclusive: 12.8%
17,Cc1ccc(NC(=O)CN2CCN(Cc3ccccc3)CC2)c(Br)c1,inconclusive: -6%
18,CN(c1cccc(NC(=O)COc2ccc(Cl)cc2Cl)c1)S(C)(=O)=O,inconclusive: 22.6%
19,C=C1CCC[C@]2(C)C[C@H]3OC(=O)C(CN(C)CC(OC)OC)[C@H]3CC12 (some centres not stated),inconclusive: -24.3%
20,CC(=O)CCC(=O)N1CCCC(N2CCN(c3cccc(Cl)c3)CC2)C1 (configuration not stated),inconclusive: 22.7%
21,CCOc1ccc(N2CC(C(=O)Nc3ccc(S(=O)(=O)Nc4nccs4)cc3)CC2=O)cc1 (configuration not stated),inactive: -4.1%
22,COc1ccc(C(CNC(=O)c2nn(-c3ccccc3)c(=O)c3ccccc23)N2CCOCC2)cc1 (configuration not stated),inactive: -0.1%
23,CCc1c(O)nc(SCC(=O)Nc2nc3ccccc3s2)n(C2CCCCC2)c1=O,inconclusive: -61.8%

# Grouped by structure: those above with four or more nitrogen atoms
row,Compound,inhibition
2,CC(C)c1cc(NCCOCCO)n2c(nc3ccccc32)c1C#N,inconclusive: -9.3%
3,CN(Cc1cnc2nc(N)nc(N)c2n1)c1ccc(C(=O)NC(CCC(=O)O)C(=O)O)cc1 (configuration not stated),inactive: 1.2%
6,O=c1[nH]c(N/N=C/c2ccccc2Br)nnc1-c1ccccc1,inactive: -5.4%
9,O=C(NNc1ccc([N+](=O)[O-])cc1)Nc1ccccc1,inconclusive: -11.3%
13,COc1cccc(CN2CCN(c3ncccn3)CC2)c1OC,inconclusive: -9.2%
16,Cc1cc(C)n2nc(SCCC(=O)NCCc3ccccc3)nc2n1,inactive: -0.3%
17,CC(O)CSc1nc2c(c(=O)[nH]c(=O)n2C)n1Cc1ccccc1Cl (configuration not stated),inconclusive: 5.1%
21,COc1ccc(C2=Nn3c(nnc3-c3cccnc3)SC2)cc1,inactive: -4%
3,c1ccc(OCCNc2nc(NCC3CC3)nc3ccsc23)cc1,inactive: -7.4%
5,CCN1CCN(c2nc3ccccn3c(=O)c2/C=C(\C#N)S(=O)(=O)c2ccccc2)CC1,inconclusive: -89.9%
7,S=c1[nH]nc(-c2ccco2)n1/N=C/c1cccc(Cl)c1,inconclusive: 33.1%
8,Cc1nnc2n(-c3ccccc3)c(=O)c3ccccc3n12,inconclusive: 8.8%
18,O=C(NNC(=O)c1ccc[nH]1)Nc1cccc(C(F)(F)F)c1,inconclusive: -50.7%
4,CCN(CC)C(=O)CSc1nc(N)c(-c2ccccc2)c(=O)[nH]1,inactive: 3.3%
21,CCOc1ccc(N2CC(C(=O)Nc3ccc(S(=O)(=O)Nc4nccs4)cc3)CC2=O)cc1 (configuration not stated),inactive: -4.1%
22,COc1ccc(C(CNC(=O)c2nn(-c3ccccc3)c(=O)c3ccccc23)N2CCOCC2)cc1 (configuration not stated),inactive: -0.1%
23,CCc1c(O)nc(SCC(=O)Nc2nc3ccccc3s2)n(C2CCCCC2)c1=O,inconclusive: -61.8%

# (listing goes on)

row,Compound,inhibition
1,CC(=O)Nc1nonc1NC(C)=O,inactive: -2.8%
2,Cc1ccc2[nH]cc(CCNC(=O)/C=C/c3ccco3)c2c1,inconclusive: 8.3%
3,O=C(Cc1ccc(Cl)cc1)Nc1ccccn1,inconclusive: -31.2%
4,CCCCNC(=O)C1Cc2cc(S(=O)(=O)N3CCCCC3)ccc2N1C(C)=O (configuration not stated),inactive: 2.7%
5,Cc1ccc(C2=NN(C(=O)CCC(=O)O)C(c3ccc4c(c3)OCO4)C2)cc1 (configuration not stated),inconclusive: 1.5%
6,Cc1ccc(C)c(NCCCCC(=O)O)c1,inactive: -13.2%
7,O=C(NC(=S)NNC(=O)[C@H]1C[C@@H]1c1ccccc1)c1cccc(F)c1,inconclusive: -30.8%
8,CCCC(CCC)c1nnc(NC(=O)c2ccco2)s1,inconclusive: 11%
9,O=C(O)c1ccc(CN2C(=O)c3ccc(C(=O)O)cc3C2=O)cc1,inactive: -12.9%
10,Cc1c(C(=O)NCc2ccc3c(c2)OCO3)oc2ccccc12,inactive: 3.2%
11,COC(=O)c1cc2c(N)c(C(=O)c3ccccc3)sc2nc1C(OC)OC,inconclusive: -8%
12,O=S(=O)(Nc1ccc(N2CCCCC2)cc1)c1ccc(F)cc1F,inconclusive: -232%
13,CC(=O)Nc1ccc(NC(=O)c2cc([N+](=O)[O-])cc([N+](=O)[O-])c2)cc1,inconclusive: 0.1%
14,O=[N+]([O-])c1ccccc1/C=C/C=N/n1c(-c2ccccc2F)n[nH]c1=S,inconclusive: 5.5%
15,COc1ccccc1N1CCN(C2CCC(C)CC2)CC1 (configuration not stated),inconclusive: -25.6%
16,O=C(Cc1ccccc1)N1CCN(CCCc2ccccc2)CC1,inconclusive: -64.4%
17,CCN1/C(=C2/SC(=S)N(NC(C)=O)C2=O)Sc2ccc(OC)cc21,inconclusive: -12.9%
18,c1ccc(-c2oc3ncnc(NCCCn4ccnc4)c3c2-c2ccccc2)cc1,inactive: -6.7%
19,CCOc1ccccc1NC(=O)Nc1cc(S(=O)(=O)N(C)C)ccc1C,inconclusive: -1.6%
20,C=C(C)CSc1nnc([C@@H]2CCCN2)o1,inconclusive: -30.4%
21,COc1ccc(CN2CCN(CCCc3ccccc3)C(CCO)C2)cc1OC (configuration not stated),inconclusive: 14.9%
22,COc1cccc(C(=O)N2N=C(c3ccccn3)CC2(O)C(F)(F)F)c1 (configuration not stated),inconclusive: -6.2%
23,CCOc1nnc(C)c2c(C)n(-c3cccc(Cl)c3)nc12,active: 46.5%
